Laboratory results from article doi:10.1101/2022.11.30.518502.
These are yes or no findings as the source states them, for the method shown. Binding seen in cells or lysates may run through a third protein. Binding can be weak; no strength is given.

Molecular target: Myc-Tau^P301L (human)
Assay: co-IP

| binding | Binder |
| --- | --- |
| binds | TOM40 (protein, UniProt O96008 1-361) MGNVLAASSPPAGPPPPPAPALVGLPPPPPSPPGFTLPPLGGSLGAGTSTSRSSERTPGAATASASGAAEDGACGCLPNPGTFEECHRKCKELFPIQMEGVKLTVNKGLSNHFQVNHTVALSTIGESNYHFGVTYVGTKQLSPTEAFPVLVGDMDNSGSLNAQVIHQLGPGLRSKMAIQTQQSKFVNWQVDGEYRGSDFTAAVTLGNPDVLVGSGILVAHYLQSITPCLALGGELVYHRRPGEEGTVMSLAGKYTLNNWLATVTLGQAGMHATYYHKASDQLQVGVEFEASTRMQDTSVSFGYQLDLPKANLLFKGSVDSNWIVGATLEKKLPPLPLTLALGAFLNHRKNKFQCGFGLTIG |
| no binding | TIM23 (protein, UniProt O14925 1-209) MEGGGGSGNKTTGGLAGFFGAGGAGYSHADLAGVPLTGMNPLSPYLNVDPRYLVQDTDEFILPTGANKTRGRFELAFFTIGGCCMTGAAFGAMNGLRLGLKETQNMAWSKPRNVQILNMVTRQGALWANTLGSLALLYSAFGVIIEKTRGAEDDLNTVAAGTMTGMLYKCTGGLRGIARGGLTGLTLTSLYALYNNWEHMKGSLLQQSL |
